# The supplement of paper PMC3334620
# The full ranking holds about 33,000 sequences; the median of “E-score (-0.5 to 0.5)” is about -0.015, and the highest 2% start at about 0.3. Some of the results follow.
# Target: T1, Abf1 (UniProt P14164)
# T1 sequence: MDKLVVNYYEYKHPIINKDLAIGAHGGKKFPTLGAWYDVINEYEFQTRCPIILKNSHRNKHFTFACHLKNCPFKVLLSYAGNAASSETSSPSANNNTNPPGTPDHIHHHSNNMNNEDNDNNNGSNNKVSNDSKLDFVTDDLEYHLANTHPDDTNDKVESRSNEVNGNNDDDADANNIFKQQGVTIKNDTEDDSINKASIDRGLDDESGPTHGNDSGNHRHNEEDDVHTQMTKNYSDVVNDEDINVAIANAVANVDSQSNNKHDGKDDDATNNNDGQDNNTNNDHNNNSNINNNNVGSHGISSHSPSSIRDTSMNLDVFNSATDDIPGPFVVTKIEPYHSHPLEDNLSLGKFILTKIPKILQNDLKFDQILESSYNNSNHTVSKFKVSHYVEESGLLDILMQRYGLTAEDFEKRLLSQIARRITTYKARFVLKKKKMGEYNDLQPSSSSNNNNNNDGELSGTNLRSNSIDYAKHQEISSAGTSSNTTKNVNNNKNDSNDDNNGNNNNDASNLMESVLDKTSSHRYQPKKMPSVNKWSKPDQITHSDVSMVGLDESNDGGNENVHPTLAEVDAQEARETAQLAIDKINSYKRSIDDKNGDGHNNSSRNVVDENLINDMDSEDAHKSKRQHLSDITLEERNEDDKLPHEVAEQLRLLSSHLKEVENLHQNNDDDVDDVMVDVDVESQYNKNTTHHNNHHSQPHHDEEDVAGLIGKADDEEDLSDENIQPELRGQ
# Assay: PBM E-score (8-mer binding enrichment) (E-score (-0.5 to 0.5)); higher = stronger / more preferred TF binding
# Conditions: protein concentration: 200 nM; construct: GST-full length
# Method in brief: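 Using PURExpress in vitro transcription/translation, GST-tagged yeast transcription factors were made in full-length or DNA-binding-domain form. These were applied at about 100-200 nM to double-stranded universal all-10-mer Agilent arrays, and bound protein was detected with fluorescent anti-GST. Scans were normalised with masliner before the Universal PBM Analysis Suite assigned E-scores to ungapped eight-base words pooled with their reverse complements.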
row,Sequence,PBM E-score
1,ATTTTGAA,0.258
2,AGCAGATA,-0.0913
3,CTTGCATA,0.0552
4,CACCGTCG,0.105
5,TGCATGAA,-0.0459
6,CCACTAAC,-0.214
7,GATAGAGC,0.109
8,CGTGGGAA,0.187
9,GTATTAAC,0.178
10,TGCCAAAA,0.128
11,AAAGTTCA,-0.195
12,ACTTTACG,0.105
13,CGGCACGC,-0.0795
14,TAGCGGAA,-0.0226
15,ATCCACTG,-0.0849
16,ACAGCTAG,-0.181
17,ACCTTGCT,-0.129
18,ATATGGAT,0.164
19,CTGTCTTC,-0.132
20,CAAAGCAC,0.103
21,ACTTCGGG,-0.239
22,AAAGTCCC,-0.0958
23,GGGGATCA,-0.0388
24,GGGCTTGA,-0.189
25,CCAATTGC,-0.102

row,Sequence,PBM E-score
1,ACACAGGG,-0.0866
2,TTCAACAA,0.00101
3,CCAACTAG,0.0426
4,GCCGAACA,0.0292
5,CATGGCAA,0.00264
6,AACCTGAA,-0.274
7,TGCTGTAA,0.172
8,AAATTATT,0.215
9,AAGTAGAC,-0.0464
10,CCCGAATA,0.0145
11,TCTATCCA,0.0772
12,AGTTGTCA,0.253
13,TAGACACA,-0.186
14,ACTTATCA,0.231
15,ATAAGGGG,-0.0385
16,GCCTCAAC,-0.103
17,TAATGCCA,-0.0319
18,GAATCAAA,-0.0532
19,ATACTTAC,0.231
20,CGATGCAG,-0.121
21,ACTTCCTG,0.00876
22,GCGATATA,0.368
23,AAGAAGAA,0.145
24,CGGAACAC,0.156
25,AGTCGTTG,0.0688

row,Sequence,PBM E-score
1,ATACGCGC,0.00524
2,CAGAGGGA,-0.0392
3,ATGTCGCA,0.203
4,AGGTGTTC,-0.0567
5,CCTACCGC,-0.255
6,AGCTATTG,-0.14
7,CAGGGGGG,-0.308
8,CTAGGAAA,-0.0957
9,AGGGACGA,0.24
10,CAAGTAGA,-0.246
11,CCGGCAAC,-0.251
12,TGCATTAA,0.0881
13,TCTTACCA,-0.21
14,GCGGCGGA,0.0979
15,GAGCTATC,-0.0679
16,CCTTATGC,0.0214
17,ATGACTGG,-0.228
18,CCGTCCCG,-0.024
19,GAGATGGC,-0.0162
20,GTCCAGAA,-0.0139
21,AAAATGGC,0.0419
22,CACAGTTC,-0.0106
23,CACTTTCG,0.229
24,CGTCACCC,0.0771
25,CATAGCGA,0.027

row,Sequence,PBM E-score
1,GTCCCTGA,0.0172
2,AGGTGGGG,-0.168
3,AATCCCTA,0.0984
4,AGGGCTAG,-0.232
5,ACTATCCT,-0.0315
6,AGCCTGGA,-0.328
7,GAACGAAC,0.121
8,AAAGTCCA,-0.00416
9,ATATAGAA,-0.059
10,GTAGACTA,-0.244
11,AGGGTCAG,-0.282
12,AGACAGAC,0.0875
13,CTCAACTA,-0.0435
14,ACTTACCA,-0.105
15,CCTTGGGA,-0.158
16,TAATAGAA,0.158
17,AGTCGAGG,-0.102
18,CGGGCTAA,-0.295
19,ACCCCGAC,-0.154
20,ACACAAAC,0.0247
21,CCCGATGC,-0.19
22,GCCCTGGA,0.0449
23,AGAACCCA,-0.0314
24,ACACCAGT,-0.157
25,AGTCCTCC,-0.219

# 2 records drawn at random from the list so far:
row,Sequence,PBM E-score
17,AGTCGAGG,-0.102
23,AGAACCCA,-0.0314

# Carrying on.

row,Sequence,PBM E-score
1,CCACGAGA,0.132
2,CCCAGACA,-0.112
3,GGCTATGA,-0.115
4,TATTTGGA,-0.119
5,CATAGGAA,0.0223
6,GAGGACCA,-0.0911
7,GCACTGAC,-0.0867
8,CGCGCAAC,-0.0533
9,ATCCGTGC,0.242
10,GTGTGTTA,-0.0342
11,AATCTAAT,-0.118
12,CGGCGGAA,-0.0532
13,ATGGACCA,-0.0277
14,AATTCGTC,0.315
15,ATCAATAG,-0.093
16,AACCCTTC,-0.0433
17,CTCCCTCA,-0.0926
18,CTAGAGTA,-0.123
19,ACTATCCA,0.0249
20,ATAGGACA,-0.136
21,CCACGTTA,0.147
22,AAATGGGG,-0.216
23,AAGGCCGT,0.0334
24,CTTTTAAA,0.0683
25,ATTACCTG,-0.0452

row,Sequence,PBM E-score
1,CCGCAGCA,-0.0406
2,ACGCTTGA,0.0331
3,ACCGCATG,0.105
4,AGTGTTAC,0.0125
5,AGGCGCCG,0.147
6,AAGGCTTA,-0.214
7,AAATGGCA,0.0205
8,GTAGTATA,0.146
9,ATGGGACG,0.0795
10,CAAAGGGC,-0.155
11,CATGCTCG,-0.0629
12,GAGGGACA,-0.103
13,ATGTTAAT,-0.0223
14,TCCGTTCA,0.0159
15,AGAGTACG,0.01
16,CCAGCCGC,-0.0671
17,AGATTAAA,0.296
18,CCATTGAC,-0.0286
19,ATTCTAAA,0.122
20,CGAAGGAA,-0.179
21,AACGTAAT,-0.0392
22,AGGCTCGC,-0.173
23,ATAAGGGA,-0.0279
24,ATCGGAGC,-0.0319
25,AATTAGAA,-0.0607

# Reprinted from the listing (two entries):
row,Sequence,PBM E-score
17,AGATTAAA,0.296
18,CCATTGAC,-0.0286

# (listing goes on)

row,Sequence,PBM E-score
1,AGGCGGGC,-0.0458
2,ACATGTCA,0.221
3,ACTGACCC,-0.252
4,CGGGTCTA,-0.0341
5,AGTAGTGG,-0.0083
6,AGAACTCA,-0.123
7,ACCCGTAC,0.299
8,ATAAAGGC,-0.147
9,AACTGCAG,-0.167
10,GTTATTAA,0.0652
11,AGTGATCA,0.416
12,GGCGCACC,-0.238
13,CCAAACCA,-0.0474
14,AGACGTAT,0.084
15,ACACGCAA,-0.0276
16,GCCCCGGA,-0.217
17,GCAACCCA,0.00802
18,GCTGCAGA,-0.106
19,GACACTTA,-0.0374
20,AAACACTT,0.0186
21,ATGTCAAA,0.108
22,TAGGATCA,0.183
